Test results: PMC7747705
No constants are given. Whether binding was seen depends on the method and setting. Binding seen in cells or lysates may run through a third protein. Sequences can lack the tags named with a protein.

Sequences of proteins named here, by UniProt entry; tags and fusion partners are left off.
UniProt P08393: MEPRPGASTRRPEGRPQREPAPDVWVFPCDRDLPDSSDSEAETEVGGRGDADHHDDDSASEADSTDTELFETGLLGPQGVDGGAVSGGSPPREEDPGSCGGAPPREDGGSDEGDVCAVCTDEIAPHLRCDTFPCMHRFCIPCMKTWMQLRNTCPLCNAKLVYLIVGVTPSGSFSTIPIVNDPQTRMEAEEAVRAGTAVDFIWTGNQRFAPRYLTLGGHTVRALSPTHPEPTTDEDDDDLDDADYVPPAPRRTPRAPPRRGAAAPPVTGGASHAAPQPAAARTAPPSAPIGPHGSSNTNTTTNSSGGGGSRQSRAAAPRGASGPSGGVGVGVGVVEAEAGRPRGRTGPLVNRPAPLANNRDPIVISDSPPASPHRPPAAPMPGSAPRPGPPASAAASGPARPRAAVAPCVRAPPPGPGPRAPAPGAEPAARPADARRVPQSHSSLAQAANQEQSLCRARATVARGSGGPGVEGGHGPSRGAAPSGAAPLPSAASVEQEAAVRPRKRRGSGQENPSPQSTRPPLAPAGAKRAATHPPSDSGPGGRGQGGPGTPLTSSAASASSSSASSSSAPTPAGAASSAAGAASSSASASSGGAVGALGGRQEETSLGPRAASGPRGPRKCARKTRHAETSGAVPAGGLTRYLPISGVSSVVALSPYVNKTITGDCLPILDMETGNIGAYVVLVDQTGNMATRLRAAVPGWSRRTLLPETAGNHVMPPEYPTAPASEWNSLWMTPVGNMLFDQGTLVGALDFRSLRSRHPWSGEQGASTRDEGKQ

Molecular target: T1, FLAG-tagged TBK1 (TANK-binding kinase 1) (UniProt Q9UHD2)
T1 sequence: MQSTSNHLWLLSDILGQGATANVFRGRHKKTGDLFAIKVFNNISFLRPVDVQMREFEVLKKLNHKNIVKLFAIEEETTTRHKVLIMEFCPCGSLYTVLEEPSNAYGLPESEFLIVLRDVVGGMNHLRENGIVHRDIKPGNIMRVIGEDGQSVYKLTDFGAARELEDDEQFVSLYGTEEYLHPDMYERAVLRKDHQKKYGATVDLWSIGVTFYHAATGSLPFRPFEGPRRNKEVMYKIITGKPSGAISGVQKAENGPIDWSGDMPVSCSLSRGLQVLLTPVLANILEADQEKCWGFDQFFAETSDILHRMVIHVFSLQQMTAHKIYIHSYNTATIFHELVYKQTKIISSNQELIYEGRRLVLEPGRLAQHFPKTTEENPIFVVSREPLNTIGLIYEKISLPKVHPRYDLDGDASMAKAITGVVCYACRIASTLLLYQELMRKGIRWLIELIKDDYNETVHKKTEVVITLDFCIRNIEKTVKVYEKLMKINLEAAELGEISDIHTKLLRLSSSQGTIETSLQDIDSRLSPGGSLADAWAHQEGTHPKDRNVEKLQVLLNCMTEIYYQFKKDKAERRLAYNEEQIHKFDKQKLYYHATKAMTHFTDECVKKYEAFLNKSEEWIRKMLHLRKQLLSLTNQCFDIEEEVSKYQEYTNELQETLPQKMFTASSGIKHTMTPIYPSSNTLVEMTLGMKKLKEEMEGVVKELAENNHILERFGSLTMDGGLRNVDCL
Experiment: co-IP; 293T cells co-transfected with ICP0 and FLAG-tagged TBK1; extracts 18 h after transfection immunoprecipitated with anti-FLAG antibody (anti-IgG as control); blotted with anti-FLAG and anti-ICP0; radioimmunoprecipitation lysis buffer

## infected cell protein 0 (ICP0) of herpes simplex virus type 1 (from UniProt P08393 1-775)
  binding: no binding
